Substitutions are numbered along the chain they refer to. These are yes or no findings as the source states them, for the method shown. For some assays here: In cells and extracts the contact can be indirect. Some entries that bind do so weakly or less than the wild type. For some assays here: Sequences can lack the tags named with a protein.
Key:
[1] = target: T1, N-terminal GST tagged wild type LKB1 (mouse) (UniProt Q9WTK7); assay: co-expression in 293 cells, glutathione-Sepharose pull-down of GST-LKB1, colloidal blue stained gel
T1 sequence (looked up): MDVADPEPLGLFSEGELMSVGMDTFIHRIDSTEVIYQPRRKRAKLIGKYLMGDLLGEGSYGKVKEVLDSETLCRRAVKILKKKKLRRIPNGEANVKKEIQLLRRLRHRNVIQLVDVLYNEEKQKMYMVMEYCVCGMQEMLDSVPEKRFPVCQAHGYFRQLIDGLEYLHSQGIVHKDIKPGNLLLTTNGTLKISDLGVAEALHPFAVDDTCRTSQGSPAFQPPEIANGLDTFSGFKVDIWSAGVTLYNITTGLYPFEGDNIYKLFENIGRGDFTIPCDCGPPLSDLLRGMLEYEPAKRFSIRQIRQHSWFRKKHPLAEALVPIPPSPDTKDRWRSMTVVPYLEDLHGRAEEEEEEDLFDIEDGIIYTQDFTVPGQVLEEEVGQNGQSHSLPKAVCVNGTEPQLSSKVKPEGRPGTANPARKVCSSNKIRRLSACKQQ

Protein sequences, listed by entry. Tags and fused reporters are not part of them. Lines headed by an entry give the natural chain unless they say otherwise; changes in a name come on top. Chains listed by the source or under a name are the forms on record and can include a tag or linker. Residues count along the entry.
endogenous rat MO25α (Rat-2 cells; rat liver) (D3ZJ77, form named): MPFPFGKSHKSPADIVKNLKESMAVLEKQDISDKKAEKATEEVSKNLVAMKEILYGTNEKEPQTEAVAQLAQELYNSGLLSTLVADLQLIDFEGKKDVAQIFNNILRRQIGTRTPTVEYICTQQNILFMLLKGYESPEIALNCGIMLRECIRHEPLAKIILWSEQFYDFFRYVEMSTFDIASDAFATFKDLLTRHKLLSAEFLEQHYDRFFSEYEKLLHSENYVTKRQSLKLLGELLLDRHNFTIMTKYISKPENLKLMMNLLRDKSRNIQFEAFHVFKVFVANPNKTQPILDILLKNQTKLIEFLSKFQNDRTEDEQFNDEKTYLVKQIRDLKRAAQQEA
UniProt P08238, residues 2-724: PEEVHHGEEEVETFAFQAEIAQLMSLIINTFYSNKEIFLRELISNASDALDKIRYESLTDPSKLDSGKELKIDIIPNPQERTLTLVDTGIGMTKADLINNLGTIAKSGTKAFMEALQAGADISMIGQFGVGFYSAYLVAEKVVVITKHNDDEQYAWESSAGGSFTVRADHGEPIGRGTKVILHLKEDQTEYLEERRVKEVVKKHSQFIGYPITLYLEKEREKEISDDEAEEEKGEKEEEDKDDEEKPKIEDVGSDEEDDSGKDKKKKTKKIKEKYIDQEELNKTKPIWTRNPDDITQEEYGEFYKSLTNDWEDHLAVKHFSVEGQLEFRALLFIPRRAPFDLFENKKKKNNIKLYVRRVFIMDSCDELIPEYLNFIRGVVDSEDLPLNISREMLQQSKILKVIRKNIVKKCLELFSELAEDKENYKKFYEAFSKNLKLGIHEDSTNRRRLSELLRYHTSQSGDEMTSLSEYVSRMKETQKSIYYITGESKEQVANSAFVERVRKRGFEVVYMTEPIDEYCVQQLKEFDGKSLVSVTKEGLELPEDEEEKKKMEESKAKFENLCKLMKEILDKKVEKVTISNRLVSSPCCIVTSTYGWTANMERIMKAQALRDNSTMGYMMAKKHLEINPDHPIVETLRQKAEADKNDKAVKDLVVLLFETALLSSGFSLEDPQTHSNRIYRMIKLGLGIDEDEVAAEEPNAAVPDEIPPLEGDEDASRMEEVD

[2] = target: T2, endogenous human MO25α (HeLa, 293 cells) (human) (UniProt Q9Y376); assay: co-immunoprecipitation of endogenous proteins with anti-MO25α antibody, 293 cells, immunoblot
T2 sequence (looked up): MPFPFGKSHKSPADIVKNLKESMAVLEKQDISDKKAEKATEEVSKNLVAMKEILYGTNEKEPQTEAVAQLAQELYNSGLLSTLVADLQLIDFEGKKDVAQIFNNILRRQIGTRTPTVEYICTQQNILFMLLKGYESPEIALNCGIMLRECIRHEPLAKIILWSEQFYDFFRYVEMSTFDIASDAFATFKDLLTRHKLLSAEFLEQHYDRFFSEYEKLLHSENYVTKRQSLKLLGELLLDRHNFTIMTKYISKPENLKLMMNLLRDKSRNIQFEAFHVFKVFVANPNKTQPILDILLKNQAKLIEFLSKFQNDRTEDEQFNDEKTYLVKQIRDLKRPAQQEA

[3] = target: T3, endogenous LKB1 of 293 / HEK-293T cells (human) (UniProt Q15831); assay: co-immunoprecipitation with anti-LKB1 antibody, HEK-293T cells
T3 sequence (looked up): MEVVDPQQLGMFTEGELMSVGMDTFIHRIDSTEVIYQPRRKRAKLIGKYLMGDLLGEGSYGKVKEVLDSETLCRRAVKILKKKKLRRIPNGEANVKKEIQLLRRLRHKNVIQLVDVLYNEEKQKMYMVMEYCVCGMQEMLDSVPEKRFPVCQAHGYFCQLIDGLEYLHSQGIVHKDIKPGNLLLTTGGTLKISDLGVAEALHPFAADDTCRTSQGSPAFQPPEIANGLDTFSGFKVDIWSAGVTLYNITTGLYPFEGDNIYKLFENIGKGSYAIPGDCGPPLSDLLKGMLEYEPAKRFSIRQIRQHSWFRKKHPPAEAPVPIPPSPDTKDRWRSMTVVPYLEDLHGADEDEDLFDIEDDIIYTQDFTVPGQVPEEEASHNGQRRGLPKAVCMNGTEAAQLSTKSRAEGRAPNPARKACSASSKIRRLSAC

[4] = target: T3, endogenous LKB1 of 293 / HEK-293T cells (human); assay: co-immunoprecipitation of endogenous proteins with anti-LKB1 antibody, 293 cells, immunoblot
[5] = target: T4, endogenous rat LKB1 (Rat-2 cells; rat liver AMPKK1 and AMPKK2 fractions) (rat) (UniProt D4AE59); assay: co-immunoprecipitation of endogenous proteins with anti-LKB1 antibody, Rat-2 cells, immunoblot
T4 sequence (looked up): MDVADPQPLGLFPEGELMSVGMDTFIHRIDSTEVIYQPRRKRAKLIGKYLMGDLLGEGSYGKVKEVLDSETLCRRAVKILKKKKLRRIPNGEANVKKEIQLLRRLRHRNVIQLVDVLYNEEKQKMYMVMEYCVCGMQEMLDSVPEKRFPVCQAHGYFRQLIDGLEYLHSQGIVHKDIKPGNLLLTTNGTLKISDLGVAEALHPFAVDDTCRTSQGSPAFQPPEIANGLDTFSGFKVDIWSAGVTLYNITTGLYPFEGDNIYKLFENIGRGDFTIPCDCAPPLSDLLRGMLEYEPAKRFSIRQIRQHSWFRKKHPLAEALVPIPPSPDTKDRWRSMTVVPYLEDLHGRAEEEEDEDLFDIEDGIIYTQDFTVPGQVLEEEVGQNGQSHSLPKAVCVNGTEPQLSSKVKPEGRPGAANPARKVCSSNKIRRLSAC

[6] = target: T4, endogenous rat LKB1 (Rat-2 cells; rat liver AMPKK1 and AMPKK2 fractions) (rat); assay: co-immunoprecipitation with anti-LKB1 antibody from rat liver AMPKK1 and AMPKK2 fractions
[7] = target: T4, endogenous rat LKB1 (Rat-2 cells; rat liver AMPKK1 and AMPKK2 fractions) (rat); assay: co-immunoprecipitation with anti-LKB1 antibody (figure legend)
[8] = target: T5, endogenous rat MO25α (Rat-2 cells; rat liver) (rat) (UniProt D3ZJ77); assay: co-immunoprecipitation of endogenous proteins with anti-MO25α antibody, Rat-2 cells, immunoblot
T5 sequence: T2 sequence (looked up) with A300T, P336A

[9] = target: T6, N-terminal GST tagged STRADβ (human) (UniProt Q9C0K7); assay: GST pull-down from co-transfected 293 cells, anti-Myc blot
T6 sequence: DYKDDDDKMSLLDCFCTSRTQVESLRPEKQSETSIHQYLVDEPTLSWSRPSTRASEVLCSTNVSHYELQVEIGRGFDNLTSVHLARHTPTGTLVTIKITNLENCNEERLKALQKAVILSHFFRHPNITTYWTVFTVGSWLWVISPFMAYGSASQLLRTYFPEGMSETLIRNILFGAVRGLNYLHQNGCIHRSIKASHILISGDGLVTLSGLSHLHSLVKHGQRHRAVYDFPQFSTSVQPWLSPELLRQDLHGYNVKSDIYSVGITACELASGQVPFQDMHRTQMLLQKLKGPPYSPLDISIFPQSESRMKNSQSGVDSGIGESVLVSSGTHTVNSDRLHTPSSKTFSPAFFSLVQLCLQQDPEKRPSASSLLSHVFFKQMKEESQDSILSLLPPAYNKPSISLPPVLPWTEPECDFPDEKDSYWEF

[10] = target: T7, N-terminal GST tagged wild type STRADα (human) (UniProt Q7RTN6); assay: as above
T7 sequence: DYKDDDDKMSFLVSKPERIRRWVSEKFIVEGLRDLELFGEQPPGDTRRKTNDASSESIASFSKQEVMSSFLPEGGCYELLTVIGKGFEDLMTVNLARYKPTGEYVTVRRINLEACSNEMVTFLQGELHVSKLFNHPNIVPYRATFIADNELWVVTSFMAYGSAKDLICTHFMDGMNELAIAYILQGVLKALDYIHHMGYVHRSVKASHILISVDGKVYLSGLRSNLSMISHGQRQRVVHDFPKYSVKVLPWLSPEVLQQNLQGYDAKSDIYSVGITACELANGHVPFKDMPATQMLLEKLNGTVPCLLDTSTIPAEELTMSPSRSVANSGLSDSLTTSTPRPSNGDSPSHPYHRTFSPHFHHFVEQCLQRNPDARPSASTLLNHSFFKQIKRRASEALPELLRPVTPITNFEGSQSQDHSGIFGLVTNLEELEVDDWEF

[11] = target: T8, N-terminal Flag epitope tagged kinase dead LKB1 (D194A) (mouse) (UniProt Q9WTK7); assay: anti-Flag affinity purification of Flag-LKB1 from HeLa cells; mass fingerprint and immunoblot
T8 sequence: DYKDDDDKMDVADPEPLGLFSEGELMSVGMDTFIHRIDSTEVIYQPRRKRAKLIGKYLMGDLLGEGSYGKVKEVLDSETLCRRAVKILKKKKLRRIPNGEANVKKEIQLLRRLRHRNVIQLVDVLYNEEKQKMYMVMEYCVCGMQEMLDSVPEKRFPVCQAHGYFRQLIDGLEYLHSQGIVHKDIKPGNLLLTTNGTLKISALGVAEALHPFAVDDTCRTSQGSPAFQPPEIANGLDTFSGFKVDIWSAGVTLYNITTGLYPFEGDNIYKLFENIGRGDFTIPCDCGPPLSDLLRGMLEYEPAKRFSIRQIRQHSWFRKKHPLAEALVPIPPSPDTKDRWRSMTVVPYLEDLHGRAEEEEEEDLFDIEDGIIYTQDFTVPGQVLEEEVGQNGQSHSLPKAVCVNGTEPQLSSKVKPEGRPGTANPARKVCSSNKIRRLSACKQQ

## Hsp90 (from UniProt P08238)
[1]
  binding: binds

B1: endogenous human STRADα (HeLa, 293 cells) (protein, UniProt Q7RTN6 1-431, looked up)
chain: MSFLVSKPERIRRWVSEKFIVEGLRDLELFGEQPPGDTRRKTNDASSESIASFSKQEVMSSFLPEGGCYELLTVIGKGFEDLMTVNLARYKPTGEYVTVRRINLEACSNEMVTFLQGELHVSKLFNHPNIVPYRATFIADNELWVVTSFMAYGSAKDLICTHFMDGMNELAIAYILQGVLKALDYIHHMGYVHRSVKASHILISVDGKVYLSGLRSNLSMISHGQRQRVVHDFPKYSVKVLPWLSPEVLQQNLQGYDAKSDIYSVGITACELANGHVPFKDMPATQMLLEKLNGTVPCLLDTSTIPAEELTMSPSRSVANSGLSDSLTTSTPRPSNGDSPSHPYHRTFSPHFHHFVEQCLQRNPDARPSASTLLNHSFFKQIKRRASEALPELLRPVTPITNFEGSQSQDHSGIFGLVTNLEELEVDDWEF
[2]
  binding: binds
[3]
  binding: binds
[4]
  binding: binds

B2: endogenous rat STRADα (Rat-2 cells; rat liver) (protein, UniProt Q7TNZ6 1-393, looked up)
chain: MSFLANEASSESIASFSKPEIMSSFLPEGGCYELLSVIGKGFEDLMTVNSRYKPTGEYVTVRRINLEACSNEMVTFLQGELHVSKLFSHPNIVPYRATFIADNELWAVTSFMAYGSAKDLIGTHFMDGMSELAIAYILQGVLKALDYIHHMGYVHRSVKASHILISTDGKVYLSGLRSNLSMISHGQRQRAVHDFPKYSIKVLPWLSPEVLQQNLQGYDAKSDIYSVGITACELANGHVPFKDMPATQMLLEKLNGTVPCLLDTSTIPAEELTMSPSRSIANPGLNDSLAAGSLRPANGDSPSHPYHRTFSPHFHNFVEQCLQRNPDARPNASTLLNHSFFKQIKRRASEALPELLRPVTPITSFEGSQSQDHSGILGLVTNLEDLEVDDWEF
[5]
  binding: binds
[6]
  binding: binds
[7]
  binding: binds
[8]
  binding: binds

B3: N-terminal Myc-tagged MO25α (other, human, UniProt Q9Y376 1-341, looked up)
chain: T2 sequence (looked up)
notes: also called Myc-MO25α; myc-MO25α; not shown: only the DNA primer is printed
[9]
  binding: binds
[10]
  binding: binds

B4: Cdc37 chaperone protein, endogenous in HeLa cells (protein, human, UniProt Q16543 1-378, looked up)
chain: MVDYSVWDHIEVSDDEDETHPNIDTASLFRWRHQARVERMEQFQKEKEELDRGCRECKRKVAECQRKLKELEVAEGGKAELERLQAEAQQLRKEERSWEQKLEEMRKKEKSMPWNVDTLSKDGFSKSMVNTKPEKTEEDSEEVREQKHKTFVEKYEKQIKHFGMLRRWDDSQKYLSDNVHLVCEETANYLVIWCIDLEVEEKCALMEQVAHQTIVMQFILELAKSLKVDPRACFRQFFTKIKTADRQYMEGFNDELEAFKERVRGRAKLRIEKAMKEYEEEERKKRLGPGGLDPVEVYESLPEELQKCFDVKDVQMLQDAISKMDPTDAKYHMQRCIDSGLWVPNSKASEAKEGEEAGPGDPLLEAVPKTGDEKDVSV
[11]
  binding: binds

— patent US20070036793A1, “Methods for use of an lkb1/strad7mo25 complex” (priority 2003, published 2007)
